According to patent US20250283871A1, “COMPOSITIONS AND METHODS FOR MODULATING THE INTERACTION BETWEEN SS18-SSX FUSION ONCOPROTEIN AND NUCLEOSOMES” (Dana-Farber Cancer Institute, Inc., priority 2020, published 2025):

Test system: BAF complex subunits and histone proteins
Test: Mass spectrometry proteomics of purified HA-SS18 WT and HA-SS18-SSX1 complexes (Tables 5A-5E)
Set-up: species or system human
[1] = HA-SS18SSX1_NE_peptides: protein co-purified with HA-SS18-SSX1 BAF complexes from soluble nuclear extract (NE), HEK-293T cells
[2] = HA-SS18WT_NE_peptides: proteins co-purified with HA-SS18 WT from nuclear extract (NE), HEK-293T

B1: TCERG1 (protein, UniProt O14776 1-1098, looked up)
Transcription elongation …: MAERGGDGGESERFNPGELRMAQQQALRFRGPAPPPNAVMRGPPPLMRPPPPFGMMRGPPPPPRPPFGRPPFDPNMPPMPPPGGIPPPMGPPHLQRPPFMPPPMSSMPPPPGMMFPPGMPPVTAPGTPALPPTEEIWVENKTPDGKVYYYNARTRESAWTKPDGVKVIQQSELTPMLAAQAQVQAQAQAQAQAQAQAQAQAQAQAQAQAQAQAQAQAQAQAQAQAQAQAQAQAQAQAQAQAQVQAQVQAQVQAQAVGASTPTTSSPAPAVSTSTSSSTPSSTTSTTTTATSVAQTVSTPTTQDQTPSSAVSVATPTVSVSTPAPTATPVQTVPQPHPQTLPPAVPHSVPQPTTAIPAFPPVMVPPFRVPLPGMPIPLPGVAMMQIVSCPYVKTVATTKTGVLPGMAPPIVPMIHPQVAIAASPATLAGATAVSEWTEYKTADGKTYYYNNRTLESTWEKPQELKEKEKLEEKIKEPIKEPSEEPLPMETEEEDPKEEPIKEIKEEPKEEEMTEEEKAAQKAKPVATAPIPGTPWCVVWTGDERVFFYNPTTRLSMWDRPDDLIGRADVDKIIQEPPHKKGMEELKKLRHPTPTMLSIQKWQFSMSAIKEEQELMEEINEDEPVKAKKRKRDDNKDIDSEKEAAMEAEIKAARERAIVPLEARMKQFKDMLLERGVSAFSTWEKELHKIVFDPRYLLLNPKERKQVFDQYVKTRAEEERREKKNKIMQAKEDFKKMMEEAKFNPRATFSEFAAKHAKDSRFKAIEKMKDREALFNEFVAAARKKEKEDSKTRGEKIKSDFFELLSNHHLDSQSRWSKVKDKVESDPRYKAVDSSSMREDLFKQYIEKIAKNLDSEKEKELERQARIEASLREREREVQKARSEQTKEIDREREQHKREEAIQNFKALLSDMVRSSDVSWSDTRRTLRKDHRWESGSLLEREEKEKLFNEHIEALTKKKREHFRQLLDETSAITLTSTWKEVKKIIKEDPRCIKFSSSDRKKQREFEEYIRDKYITAKADFRTLLKETKFITYRSKKLIQESDQHLKDVEKILQNDKRYLVLDCVPEERRKLIVAYVDDLDRRGPPPPPTASEPTRRSTK
1: Total (peptides) [1] | Unique (peptides) [1] | Total (peptides) [2] | Unique (peptides) [2]

B2: YIF1A (protein, UniProt O95070 2-293, looked up)
Protein YIF1A: AYHSGYGAHGSKHRARAAPDPPPLFDDTSGGYSSQPGGYPATGADVAFSVNHLLGDPMANVAMAYGSSIASHGKDMVHKELHRFVSVSKLKYFFAVDTAYVAKKLGLLVFPYTHQNWEVQYSRDAPLPPRQDLNAPDLYIPTMAFITYVLLAGMALGIQKRFSPEVLGLCASTALVWVVMEVLALLLGLYLATVRSDLSTFHLLAYSGYKYVGMILSVLTGLLFGSDGYYVALAWTSSALMYFIVRSLRTAALGPDSMGGPVPRQRLQLYLTLGAAAFQPLIIYWLTFHLVR
1: Total (peptides) [1] | Unique (peptides) [1] | Total (peptides) [2] | Unique (peptides) [2]

B3: SLC5A6 (protein, UniProt Q9Y289 1-635, looked up)
Sodium-dependent multivitamin …: MSVGVSTSAPLSPTSGTSVGMSTFSIMDYVVFVLLLVLSLAIGLYHACRGWGRHTVGELLMADRKMGCLPVALSLLATFQSAVAILGVPSEIYRFGTQYWFLGCCYFLGLLIPAHIFIPVFYRLHLTSAYEYLELRFNKTVRVCGTVTFIFQMVIYMGVVLYAPSLALNAVTGFDLWLSVLALGIVCTVYTALGGLKAVIWTDVFQTLVMFLGQLAVIIVGSAKVGGLGRVWAVASQHGRISGFELDPDPFVRHTFWTLAFGGVFMMLSLYGVNQAQVQRYLSSRTEKAAVLSCYAVFPFQQVSLCVGCLIGLVMFAYYQEYPMSIQQAQAAPDQFVLYFVMDLLKGLPGLPGLFIACLFSGSLSTISSAFNSLATVTMEDLIRPWFPEFSEARAIMLSRGLAFGYGLLCLGMAYISSQMGPVLQAAISIFGMVGGPLLGLFCLGMFFPCANPPGAVVGLLAGLVMAFWIGIGSIVTSMGSSMPPSPSNGSSFSLPTNLTVATVTTLMPLTTFSKPTGLQRFYSLSYLWYSAHNSTTVIVVGLIVSLLTGRMRGRSLNPATIYPVLPKLLSLLPLSCQKRLHCRSYGQDHLDTGLFPEKPRNGVLGDSRDKEAMALDGTAYQGSSSTCILQETSL
1: Total (peptides) [1] | Unique (peptides) [1]
